Source: patent publication EP4755449A2
These are yes or no findings as the source states them, for the method shown. Binding can be weak; no strength is given.

B1: MST1032 (as used in Example 26) (antibody, V domains shown)
VH: QSLEESGGRLVTPGGSLTVTCRVSGIDLSSYDISWVRQAPGKGLEWIGIISYAGSTYYASWAKGRFTISKTSTTVDLKMTSLTTEDTATYFCARGVPAYSTGGDLWGPGTLVTVSS
VL: AQVLTQTASSVSAAVGGTVTINCQSSQSVYDNNWLSWFQQKPGQPPKLLIYWASTLASGVPSRFKGSGSGTQFTLTISDLECDDAATYYCAGGYGGGLYAFGGGTKVEIK
B2: MST1538 (antibody, human IgG1, kappa, V domains shown)
VH: QSLEESGGGLVKPGGTLTLTCKASGIDFSSYYYMCWVRQAPGKGLEWIACIYAGISGSTYYASWAKGRFTISKTSSTTVTLQMTSLTAADTATYFCARDPYHFDYGSLWGPGTLVTVSS
VL: ALVMTQTPASVSAAVGGTVTINCQASQSVYGGNELSWYQQEPGQPPKLLIYSASKLASGVPSRFKGSGSGTQFTLTISGVQCDDAAAYYCAGYRTYSDDDNAFGGGTKVEIKR
B3: MST1572 (antibody, human IgG1, kappa, V domains shown)
VH: QSVEESGGRLVTPGTPLTLTCTVSGFSLSSYAMSWVRQAPGKGLEWIGIIYGVGSTYYASWAKGRFTISKTSTTVDLKIASPTTEDTATYFCARDDYGWGYTNLWGPGTLVTVSS
VL: QVLTQTPSSVSAAVGGTVTINCQSSQSVYNNNYLAWFQQKPGQPPKLLIYDASKLASGVPSRFKGSGSGTQFTLTISGVQCDDAATYYCQGSYYSSGWYRAFGGGTKVEIKR
B4: MST1573 (antibody, human IgG1, kappa, V domains shown)
VH: QSVEESGGRLVTPGTPLTLTCTVSGIDLSSSSMIWVRQAPGEGLKYIGFISKSGYTYYASWAKGRFTISKTSTTVDLKITSPTTEDTATYFCARGGYSGDWDYFTLWGPGTLVTVSS
VL: DIVMTQTPASVEAAVGGTVTIKCQASESIGNALAWYQQKPGQPPKLLIYGAFNLESGVPSRFRGSGSGTEYTLTISDLECDDAATYYCQGYFWSSSTIYAFWAFGGGTKVEIKR

Target: GST-hMSTN 1-100aa (human)
Assay: Western blot

Binder | binding
B1 | binds
B2 | binds
B3 | binds
B4 | binds
